Measurements taken from patent publication US20060057657A1, “Stem cell selection and differentiation” (Oregon Health & Science University Technology & Research …, priority 2002, published 2006).
Some of these results come from one statement about several compounds together.

System: ES cells
Test: JC-1 fluorescence sensitivity to MDR inhibitors (JC-1 staining and flow cytometry)
Type: cell-based, mouse
Details: CsA 20 μM, verapamil 200 μM, reserpine 10 μM; added 30 minutes prior to JC-1 staining
Procedure: ES cells were maintained in ES cell media consisting of DMEM (no pyruvate, high glucose) (Gibco-BRL), 15% fetal calf serum (FCS) (Hyclone), and supplements (as described in Robertson, E. J. (1987) IRL Press Limited, Oxford, page 71-112). Supplemental Leukemia Inhibitory Factor (LIF) (1:1000 dilution) was prepared by transfecting COS-7 cells (ATCC) with a LIF expression vector, pCAGGS-LIF, then collecting and testing the supernatant 48 hours later (as described in Smith, A. (1991) Journal of Tissue Culture Methods 13:89-94). Irradiated mouse embryonic fibroblasts (MEFs) were derived from d13 embryos for use as feeder cells (as described in Robertson (1987) (supra)). […]
For MDR inhibitor dose response assays, cells were trypsinized for 15 minutes, quenched with ES cell media, triturated to a single cell suspension, and centrifuged at 1000 rpm for 5 minutes. […] Following centrifugation, cells were washed […] with cold HBSS, centrifuged and resuspended in cold PBS at the same concentration, placed on ice, and analyzed within 60 minutes (as described in Cossarizza et al. (1993) Biochem. Biophys. Res. Commun. 197:40-45). […]
Using the cationic fluorescent dye, JC-1, functionally distinct populations of ES cells were identified. […] Generally, less than 5% of the cells maintained a “JC-1 green only” fluorescence profile when treated with any of these inhibitors. […]

SMILES: COC(=O)[C@H]1[C@H]2C[C@@H]3c4[nH]c5cc(OC)ccc5c4CCN3C[C@H]2C[C@@H](OC(=O)c2cc(OC)c(OC)c(OC)c2)[C@@H]1OC [reserpine]
- cells that maintained a "JC-1 green only" fluorescence profile: less than 5%
